Measured values: PubChem BioAssay AID588590 (National Center for Advancing Translational Sciences (NCATS), 2011)
In all, about 390,000 compounds went through this assay and about 4,000 (1%) were called active. Inconclusive results, whose numbers are uncertain, are shown with a selection of clear calls. The call rests on the fitted dose curve; in most records, active means well fitted inhibition curve with a large enough effect; inconclusive means small, poorly fitted or top-dose-only effect, or another doubt; inactive means no such curve, though single readings can be large or run the other way. Potencies of inconclusive entries are doubtful fits and often do not repeat.

By UniProt entry, the sequences of proteins in these tests, tags left out. Where a name states a change or a piece, a line headed by the entry shows the natural chain unless it says otherwise.
UniProt Q9UNA4: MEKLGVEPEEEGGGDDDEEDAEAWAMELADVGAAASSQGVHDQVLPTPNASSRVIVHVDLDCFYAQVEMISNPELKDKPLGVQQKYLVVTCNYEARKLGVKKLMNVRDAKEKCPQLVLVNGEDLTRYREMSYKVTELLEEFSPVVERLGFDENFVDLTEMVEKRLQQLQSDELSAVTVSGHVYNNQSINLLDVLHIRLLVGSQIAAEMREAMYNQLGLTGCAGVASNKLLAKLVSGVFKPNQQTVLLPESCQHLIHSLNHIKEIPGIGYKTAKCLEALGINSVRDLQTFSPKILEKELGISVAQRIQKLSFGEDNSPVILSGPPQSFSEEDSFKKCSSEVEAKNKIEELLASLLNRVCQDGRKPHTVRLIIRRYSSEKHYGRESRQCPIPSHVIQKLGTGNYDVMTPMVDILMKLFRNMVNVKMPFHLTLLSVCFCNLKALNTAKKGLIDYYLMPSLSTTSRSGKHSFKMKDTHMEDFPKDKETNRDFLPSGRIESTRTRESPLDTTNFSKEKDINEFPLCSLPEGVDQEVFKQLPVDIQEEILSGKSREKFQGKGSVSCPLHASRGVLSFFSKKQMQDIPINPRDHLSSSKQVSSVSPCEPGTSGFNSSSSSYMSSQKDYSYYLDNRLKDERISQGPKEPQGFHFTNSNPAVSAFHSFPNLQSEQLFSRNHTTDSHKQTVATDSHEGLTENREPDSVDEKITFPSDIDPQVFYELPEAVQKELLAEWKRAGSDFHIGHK

What follows are compounds tested against DNA polymerase iota (Homo sapiens) (UniProt Q9UNA4) (assay: qHTS for Inhibitors of Polymerase Iota). Settings: Pol iota fluorescent replication assay, 10 min; series mostly up to 115 µM; activity, negative = inhibition: at the top concentration.
How it was run: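 Pol iota at 10 nM preincubated 15 min with compounds at room temperature; reaction started with fluorescent substrate, 50 nM final. Fluorescence read kinetically at 0 and 10 min; buffer-only wells as negative control.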
Potency means the concentration at half of the fitted maximal effect.

SMILES | activity, negative = inhibition | Potency
COc1ccc(N2CCN(S(=O)(=O)c3ccc4c(c3)CC(C)N4C(C)=O)CC2)cc1 (configuration not stated) | inactive: 0.498% | –
O=C(COc1cccnc1[N+](=O)[O-])Nc1cc(S(=O)(=O)N2CCCCC2)ccc1Cl | – | inconclusive: 89.1 µM [inhibitor, single point]
O=c1[nH]cc(N(CCO)CCO)c(=O)[nH]1 | – | inconclusive: 39.8 µM [inhibitor, single point]
COc1ccc(OC)c(/C=C2\Oc3cc(OCC(=O)N4CCC[C@H]4C(=O)O)ccc3C2=O)c1 | – | inconclusive: 56.2 µM [inhibitor, single point]
NS(=O)(=O)c1ccc(NC(=O)COC(=O)c2ccc(S(=O)(=O)N3CCOCC3)cc2)cc1 | – | inconclusive: 79.4 µM [inhibitor, partial curve, poor fit]
Nc1nc(Nc2cccc(Cl)c2)nc(NCc2ccco2)c1[N+](=O)[O-] | – | inconclusive: 12.6 µM [inhibitor, partial curve, poor fit]
Fc1ccc(-n2cc(-c3ccccc3)c3c(NC4CCCCC4)ncnc32)cc1 | inactive: -14.8% | –
CSc1ncc(C(=O)Nc2ccccc2C(=O)c2ccccc2)c(C(F)(F)F)n1 | – | inconclusive: 89.1 µM [inhibitor, single point]
CCNC(=S)N(CCc1c(C)[nH]c2ccc(C)cc12)Cc1ccco1 | – | inconclusive: 63.1 µM [inhibitor, partial curve, poor fit]
COc1cccc(Nc2ccccc2C(=O)O)c1 | inactive: 51% | –
N#Cc1ccc(C(=O)NC(=S)N2CCOCC2)cc1 | – | inconclusive: 39.8 µM [inhibitor, single point]
O=C(O)C1CCCN1S(=O)(=O)c1ccc(Br)cc1 (configuration not stated) | – | inconclusive: 11.2 µM [inhibitor, partial curve, poor fit]
CCOC(=O)C(C(C)=O)C(c1ccc(OC)cc1)C(C(C)=O)C(=O)OCC (configuration not stated) | inactive: 17.6% | –
CCCCCCCCCC[Si](C)(C)CCC(=O)N[C@@H](Cc1ccc(C)cc1)c1ccccc1 | inactive: 18.2% | –
O=CNc1ccccc1 | inactive: 1.47% | –
CC1CCC2(CC1)NC(=O)N(NC(=O)c1cc3ccccc3o1)C2=O (configuration not stated) | – | inconclusive: 100 µM [inhibitor, partial curve, poor fit]
O=C1c2ccccc2C(=O)N1CCSc1n[nH]c(=S)s1 | inactive: 16.2% | –
CCN1C(=O)c2ccccc2Sc2ccc(NC(C)=O)cc21 | – | inconclusive: 89.1 µM [inhibitor, single point]
O=c1cc(CN2CCN(c3ccccc3)CC2)nc2scc(-c3ccccc3)n12 | – | active: 56.2 µM
Cc1ccc(NCC(=O)N/N=C/c2ccc(C(=O)O)cc2)cc1 | – | inconclusive: 44.7 µM [inhibitor, partial curve]
N#Cc1ccc(CN2CCN(C(=O)CNS(=O)(=O)c3ccc4c(c3)OCCCO4)CC2)cc1 | inactive: 11.9% | –
O=C(CC1Sc2ccc(C(F)(F)F)cc2NC1=O)Nc1ccc(Cl)c(C(F)(F)F)c1 (configuration not stated) | – | inconclusive: 35.5 µM [inhibitor, single point]
Cc1c(Cl)cnc(NC(=O)COC(=O)CCC(=O)c2cccs2)c1Cl | – | inconclusive: 35.5 µM [inhibitor, full curve]

Entries of single compounds from above. Order of values: activity, negative = inhibition | Potency
CCNC(=S)N(CCc1c(C)[nH]c2ccc(C)cc12)Cc1ccco1 as listed: – | inconclusive: 63.1 µM [inhibitor, partial curve, poor fit]
NS(=O)(=O)c1ccc(NC(=O)COC(=O)c2ccc(S(=O)(=O)N3CCOCC3)cc2)cc1 as listed: – | inconclusive: 79.4 µM [inhibitor, partial curve, poor fit]
Cc1ccc(NCC(=O)N/N=C/c2ccc(C(=O)O)cc2)cc1 as listed: – | inconclusive: 44.7 µM [inhibitor, partial curve]
O=c1cc(CN2CCN(c3ccccc3)CC2)nc2scc(-c3ccccc3)n12 as listed: – | active: 56.2 µM

Next part

SMILES | activity, negative = inhibition | Potency
Cc1ccc2oc(-c3ccccc3C(=O)O)cc(=O)c2c1 | inactive: -1.1% | –
CC(=O)c1nn(-c2ccc(Cl)cc2)cc1C(=O)c1ccc(C)cc1 | – | inconclusive: 89.1 µM [inhibitor, single point]
CCC(=O)N1CCc2cc(Br)cc(S(=O)(=O)CCC(=O)NCCc3ccc(OC)c(OC)c3)c21 | inactive: 14.3% | –
COc1ccc(NS(=O)(=O)c2cc3[nH]c(=O)c(=O)[nH]c3cc2C)cc1Cl | inactive: 4.18% | –
COc1ccc(NC(=O)CSc2nnc(CCC(=O)O)c(=O)n2N)cc1 | – | inconclusive: 39.8 µM [inhibitor, partial curve]
COc1ccc(-c2ccc(C(C)=O)cc2)cc1C1C2C=CCCC2(C)C(=O)N1Cc1ccccc1 (configuration not stated) | inactive: -2.15% | –
c1ccc(-n2ncc3c(NC4CCCC4)ncnc32)cc1 | inactive: 1.74% | –
C=CCn1c(N)c(C(=O)OCCC)c2nc3ccccc3nc21 | inactive: -3.49% | –
CCOc1ccc(NC(=O)C(=O)NCCc2csc(-c3ccc(F)cc3)n2)cc1 | inactive: -5.64% | –
CC(=O)C(Cc1ccccc1)NC(=O)CN1CCc2ccccc2C1 (configuration not stated) | – | inconclusive: 89.1 µM [inhibitor, partial curve]
Cc1cc(C)nc(NC2=NCC(=O)N2c2ccccc2)n1 | – | inconclusive: 28.2 µM [inhibitor, single point]
COc1ccccc1Nc1nc(-c2cccc(N3C(=O)c4ccccc4C3=O)c2)cs1 | inactive: -8.7% | –
COc1ccc(S(=O)(=O)N(CC(=O)NCc2ccco2)c2ccc(C)cc2)cc1OC | – | inconclusive: 89.1 µM [inhibitor, single point]
O=C(COc1coc(CN2CCN(Cc3ccccc3)CC2)cc1=O)Nc1ccccc1 | – | inconclusive: 15.8 µM [inhibitor, partial curve, poor fit]
CC(=O)c1ccc(OCC(=O)Nc2ccc(N3CCCCC3)cc2)cc1 | – | inconclusive: 10 µM [inhibitor, partial curve, poor fit]
COc1ccc(NC(=O)C(NS(=O)(=O)c2ccc3c(c2)CCCC(=O)N3)C(C)C)c(OC)c1 (configuration not stated) | inactive: 18.1% | –
Oc1cc(-n2cccn2)c(O)cc1-n1cccn1 | – | inconclusive: 5.62 µM [inhibitor, full curve, poor fit]
CCn1c(=O)c2cc(C(=O)Nc3ccccc3OC)sc2c2ccccc21 | – | inconclusive: 0.708 µM [inhibitor, full curve, poor fit]
COC(=O)C1=C(N)OC2=C(C(=O)CC(C)(C)C2)C1c1cc2c(cc1Cl)OCO2 (configuration not stated) | inactive: 25.8% | –
CCCC(=O)Nc1cc(C)c(O)c(-c2nc3ncccc3o2)c1 | inactive: 7.24% | –
Cc1c(NC(=O)c2cc(-c3ccc(Cl)s3)nc3ccccc23)c(=O)n(-c2ccccc2)n1C | – | inconclusive: 3.98 µM [inhibitor, full curve, poor fit]
CCC1CCCCN1C(=O)CSc1nc2ncccc2[nH]1 (configuration not stated) | – | inconclusive: 25.1 µM [inhibitor, full curve, poor fit]
COc1ccc(CN2C(=O)c3ccc(C(=O)O)cc3C2=O)cc1 | inactive: 2.68% | –

SMILES | activity, negative = inhibition | Potency
CCOC(=O)c1nc(C)nc(Sc2n[nH]c(-c3cc(Cl)cc(Cl)c3)n2)c1C | – | inconclusive: 70.8 µM [inhibitor, partial curve, poor fit]
CCCNC(=O)c1ccc(N2CCC3(CC2)CC(c2ccccc2)=NO3)c(NC(=O)Cc2ccc(F)cc2)c1 | – | inconclusive: 17.8 µM [inhibitor, partial curve, poor fit]
CC(C)(C)C(=O)Nc1cc(C(F)(F)F)ccc1-n1ccnc1 | – | inconclusive: 89.1 µM [inhibitor, partial curve, poor fit]
CCOc1ccc(CC(=O)NCc2ccc3c(c2)cc(C)n3C)cc1 | – | inconclusive: 79.4 µM [inhibitor, single point]
CCSc1nc(O)c(C2OC(=O)c3c2ccc(OC)c3OC)c(=O)n1CC (configuration not stated) | – | inconclusive: 14.1 µM [inhibitor, full curve, poor fit]
Cn1c(SCc2ccc(Cl)cc2)nnc1-c1ccc2nonc2c1 | inactive: -6.58% | –
O=C(NCc1ccc(F)cc1)c1cc(-c2cccs2)on1 | – | inconclusive: 89.1 µM [inhibitor, partial curve]
CCOc1ccc(C2C(C(=O)c3cccs3)=C(O)C(=O)N2CCCn2ccnc2)cc1 (configuration not stated) | – | inconclusive: 12.6 µM [inhibitor, partial curve, poor fit]
CCc1ccccc1NS(=O)(=O)c1ccc2[nH]cc(C(=O)N3CCCCC3)c(=O)c2c1 | – | inconclusive: 89.1 µM [inhibitor, single point]
CC(C)c1c(C(=O)N/N=C/c2ccc(C(F)(F)F)cc2)nnn1-c1nonc1N | – | inconclusive: 8.91 µM [inhibitor, partial curve, poor fit]
O=C(CC1N=C2c3ccccc3N=C(SCc3ccc(Cl)cc3)N2C1=O)NCc1ccco1 (configuration not stated) | – | inconclusive: 31.6 µM [inhibitor, single point]
CN1CCN(CCCNc2nc3ccccc3c3nc(-c4ccccc4)nn23)CC1 | inactive: 18% | –
CC(/C=C/C=C/c1ccccc1)=N/NC(=O)CNc1ccc(C)cc1 | – | inconclusive: 89.1 µM [inhibitor, partial curve, poor fit]
CN(C)c1ccc(O)c2c1CC1CC3C(N(C)C)C(=O)C(C(N)=O)=C(O)[C@@]3(O)C(=O)C1=C2O (some centres not stated) | – | inconclusive: 79.4 µM [inhibitor, partial curve, poor fit]
CCOc1ccc(/C=c2\sc3nc(-c4ccco4)nn3c2=O)cc1OCC | – | inconclusive: 12.6 µM [inhibitor, full curve, poor fit]
COc1cc(C(=O)O)cc(OC)c1OCc1cc(C(=O)O)oc1C | – | inconclusive: 22.4 µM [inhibitor, partial curve, poor fit]
Cc1c(Cl)ccc2sc(NC(=O)c3ccc(S(=O)(=O)N4CCCc5ccccc54)cc3)nc12 | inactive: 21.4% | –
Cc1cc(C)c(NC(=O)C[C@H](CC(=O)O)c2cccc3ccccc23)c(C(=O)N2CCC3(CCCC3)CC2)c1 | – | inconclusive: 11.2 µM [inhibitor, partial curve]
CC(=O)N(C(C)=O)N1C(=O)/C(=C/c2ccc(Cl)cc2)SC1=S | – | active: 25.1 µM
Cc1cc(-c2n[nH]c(=S)n2/N=C/C(Br)=C/c2ccccc2)n[nH]1 | – | inconclusive: 112 µM [inhibitor, partial curve, poor fit]
CCOC(=O)c1c2ccccc2[n+]([O-])n1CCO | – | inconclusive: 1.78 µM [inhibitor, full curve]
